Measurements reported in PubChem BioAssay AID1259254 (NCATS, 2017).
Assay: 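Genome-wide screen for genes that prevent DNA re-replication in cancer cells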 (primary screen). Cell system: human HCT116 colorectal cancer cells. Reagents: single siRNA against human genes. Time to read-out: 3 days. Read-out: 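Imaged Hoechst DNA stain sorts each cell into a cycle phase by DNA amount; per plate, G2 fraction set to 0% for non-targeting and 100% for GMNN siRNA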. Reading the numbers: G2 robust z-score and G2 cells, % of GMNN control: higher = more G2 cells, more excess DNA replication. Rule for the call: 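Active siRNAs have a G2 robust z of 5 or more median absolute deviations over the median, which in these data means about 38% or higher of GMNN control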.
Here is a random part of about 59,000 reagents. About 1,550 of all reagents (2.6%) count as active. 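G2 share is only a proxy for re-replication; each gene was hit by three separate siRNAs, and active genes were retested.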 The numbers tell different reagents against one gene apart. Not all columns of the deposit are shown. Not stated in the record: the amount of reagent.

MRPL53 (GeneID 116540) #1 — G2 robust z-score: 1.35; G2 cells, % of GMNN control: 12.5; Call: inactive
MRPL53 (GeneID 116540) #2 — G2 robust z-score: -0.567; G2 cells, % of GMNN control: -1.02; Call: inactive
MRPL53 (GeneID 116540) #3 — G2 robust z-score: 0.658; G2 cells, % of GMNN control: 7.6; Call: inactive
CASKIN2 (GeneID 57513) #1 — G2 robust z-score: -0.681; G2 cells, % of GMNN control: -1.83; Call: inactive
CASKIN2 (GeneID 57513) #2 — G2 robust z-score: 0.558; G2 cells, % of GMNN control: 6.89; Call: inactive
CASKIN2 (GeneID 57513) #3 — G2 robust z-score: -0.385; G2 cells, % of GMNN control: 0.26; Call: inactive
NXF2 (GeneID 56001) #1 — G2 robust z-score: -0.777; G2 cells, % of GMNN control: -2.5; Call: inactive
NXF2 (GeneID 56001) #2 — G2 robust z-score: -1.07; G2 cells, % of GMNN control: -4.55; Call: inactive
NXF2 (GeneID 56001) #3 — G2 robust z-score: 0.691; G2 cells, % of GMNN control: 7.83; Call: inactive
KPNA1 (GeneID 3836) #1 — G2 robust z-score: -0.468; G2 cells, % of GMNN control: -0.324; Call: inactive
KPNA1 (GeneID 3836) #2 — G2 robust z-score: 6.9; G2 cells, % of GMNN control: 51.5; Call: active
KPNA1 (GeneID 3836) #3 — G2 robust z-score: -1.12; G2 cells, % of GMNN control: -4.94; Call: inactive
HNRNPM (GeneID 4670) #1 — G2 robust z-score: -0.755; G2 cells, % of GMNN control: -2.34; Call: inactive
HNRNPM (GeneID 4670) #2 — G2 robust z-score: 0.569; G2 cells, % of GMNN control: 6.97; Call: inactive
HNRNPM (GeneID 4670) #3 — G2 robust z-score: 2.15; G2 cells, % of GMNN control: 18.1; Call: inactive
PRR11 (GeneID 55771) #1 — G2 robust z-score: 0.628; G2 cells, % of GMNN control: 7.38; Call: inactive
PRR11 (GeneID 55771) #2 — G2 robust z-score: -0.651; G2 cells, % of GMNN control: -1.61; Call: inactive
PRR11 (GeneID 55771) #3 — G2 robust z-score: -0.193; G2 cells, % of GMNN control: 1.61; Call: inactive
